No constants are given. Whether binding was seen depends on the method and setting. Binding seen in cells or lysates may run through a third protein. Binding calls can cover weak binding; strength is not graded here. For some assays here: Sequences can lack the tags named with a protein.
Experiments:
[1] = target: T1, GFP-VAL1 (Arabidopsis) (UniProt Q8W4L5); assay: co-IP; GFP-VAL1 (wt or internal deletions) coexpressed with FLAG-dsRed-tagged VEL proteins (wt or mutant) in HEK293T; GFP-trap; anti-FLAG blot
T1 sequence: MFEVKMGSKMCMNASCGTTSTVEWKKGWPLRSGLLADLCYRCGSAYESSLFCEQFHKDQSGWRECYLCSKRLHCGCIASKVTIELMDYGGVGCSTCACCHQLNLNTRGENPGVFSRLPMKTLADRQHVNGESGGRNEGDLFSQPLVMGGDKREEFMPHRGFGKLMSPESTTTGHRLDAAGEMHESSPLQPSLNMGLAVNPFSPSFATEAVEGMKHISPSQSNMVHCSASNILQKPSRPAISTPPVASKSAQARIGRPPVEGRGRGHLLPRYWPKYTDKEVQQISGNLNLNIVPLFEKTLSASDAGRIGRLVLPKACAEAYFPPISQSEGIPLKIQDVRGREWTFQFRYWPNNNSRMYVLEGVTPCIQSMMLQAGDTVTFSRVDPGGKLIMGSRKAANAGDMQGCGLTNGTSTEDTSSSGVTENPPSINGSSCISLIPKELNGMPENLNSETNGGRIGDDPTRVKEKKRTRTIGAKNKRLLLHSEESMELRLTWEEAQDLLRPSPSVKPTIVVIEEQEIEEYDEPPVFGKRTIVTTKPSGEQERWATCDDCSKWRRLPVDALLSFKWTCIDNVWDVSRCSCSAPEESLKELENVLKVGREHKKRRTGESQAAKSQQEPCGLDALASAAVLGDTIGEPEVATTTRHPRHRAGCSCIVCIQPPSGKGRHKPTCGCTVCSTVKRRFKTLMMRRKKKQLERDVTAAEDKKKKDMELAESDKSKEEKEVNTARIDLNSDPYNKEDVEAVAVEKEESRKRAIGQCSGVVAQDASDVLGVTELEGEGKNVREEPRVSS

Amino acid sequences for entries named in this document (tags omitted). A change or cut given only in a name is not applied to a line headed by its entry.
UniProt Q9LHF5: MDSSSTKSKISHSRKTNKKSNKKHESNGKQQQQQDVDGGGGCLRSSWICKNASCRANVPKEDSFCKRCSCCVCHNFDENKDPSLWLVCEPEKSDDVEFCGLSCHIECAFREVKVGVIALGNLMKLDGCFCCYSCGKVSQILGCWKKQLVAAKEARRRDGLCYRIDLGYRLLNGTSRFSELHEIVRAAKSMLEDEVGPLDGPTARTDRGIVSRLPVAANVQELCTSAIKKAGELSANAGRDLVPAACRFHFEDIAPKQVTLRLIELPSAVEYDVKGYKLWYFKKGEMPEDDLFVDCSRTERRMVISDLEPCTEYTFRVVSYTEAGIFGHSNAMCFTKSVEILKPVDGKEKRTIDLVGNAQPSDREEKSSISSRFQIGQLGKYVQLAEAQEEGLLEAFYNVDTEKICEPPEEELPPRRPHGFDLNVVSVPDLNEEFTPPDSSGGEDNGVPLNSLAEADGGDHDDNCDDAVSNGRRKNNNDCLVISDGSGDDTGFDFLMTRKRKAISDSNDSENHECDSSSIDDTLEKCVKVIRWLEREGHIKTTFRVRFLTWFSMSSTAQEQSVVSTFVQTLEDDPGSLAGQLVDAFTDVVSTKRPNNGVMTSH
UniProt O22467: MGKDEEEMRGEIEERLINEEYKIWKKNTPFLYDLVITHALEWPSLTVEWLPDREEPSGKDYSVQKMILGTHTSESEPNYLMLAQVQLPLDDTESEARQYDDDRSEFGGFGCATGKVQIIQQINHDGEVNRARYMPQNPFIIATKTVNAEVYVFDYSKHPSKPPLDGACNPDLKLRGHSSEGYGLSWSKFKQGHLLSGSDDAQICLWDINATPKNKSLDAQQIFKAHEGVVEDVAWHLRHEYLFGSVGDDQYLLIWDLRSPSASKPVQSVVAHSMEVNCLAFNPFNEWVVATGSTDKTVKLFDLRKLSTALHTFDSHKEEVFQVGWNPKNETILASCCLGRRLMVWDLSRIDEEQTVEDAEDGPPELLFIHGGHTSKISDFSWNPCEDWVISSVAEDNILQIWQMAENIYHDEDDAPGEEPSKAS

[2] = target: GFP-VRN5 ΔPHDs (Arabidopsis thaliana) (UniProt Q9LHF5); assay: co-IP; GFP-tagged VEL protein (wt, mutant or chimera) coexpressed with all four HA-tagged PRC2 subunits (VRN2, SWN, FIE, MSI1) in HEK293T; GFP-trap 90 min at 4°C; lysis buffer 20 mM Tris pH 7.4, 200 mM NaCl, 10% glycerol, 0.2% Triton X-100; anti-HA blot
[3] = target: GFP-VRN5 ΔFN3 (Arabidopsis thaliana) (UniProt Q9LHF5); assay: as above
[4] = target: GFP-VRN5 ΔN (Arabidopsis thaliana) (UniProt Q9LHF5); assay: as above
[5] = target: GFP-VRN5 ΔVEL (Arabidopsis thaliana) (UniProt Q9LHF5); assay: as above

Substance | binding [1] | binding [2] | binding [3] | binding [4] | binding [5]
FLAG-dsRed-VIN3 ΔKRFK with a heterologous viral NLS (PKKKRKV) (Arabidopsis thaliana) | binds | – | – | – | –
HA-tagged MSI1 (from UniProt O22467 1-424) | – | binds weakly | binds | binds | binds
